{"source": "paper PMC5971037", "about": "“Synthesis and evaluation of antimicrobial, antitubercular and anticancer activities of 2-(1-benzoyl-1H-benzo[d]imidazol-2-ylthio)-N-substituted acetamides” (Chemistry Central Journal, 2018)", "tested_on": "MCF7 (human breast cancer) cell line", "assay": "Sulforhodamine-B (SRB) cytotoxicity assay", "format": "cell-based"}
{"smiles": "CC/C(=C(\\c1ccccc1)c1ccc(OCCN(C)C)cc1)c1ccccc1", "note": "[Tamoxifen, tamoxifen, reference compound]", "values": [{"measurement": "IC50", "result": 4.3, "unit": "µM"}]}
